Laboratory results from PubChem BioAssay AID2551 (National Center for Advancing Translational Sciences (NCATS), 2010).
Out of some 310,000 compounds screened, about 17,000 (5.5%) were called active. The shares of active, inactive and inconclusive entries below differ from those in the screen. Calls come from the whole dose curve; as a rule, active = well fitted inhibition curve with a large enough effect; inconclusive = small, poorly fitted or top-dose-only effect, or effect the other way; inactive = no such curve, though single readings can be large or run the other way. Potencies of inconclusive entries are doubtful fits and often do not repeat.

Chains of the proteins cited; added tags and fusions are not shown. Lines headed by an entry give the natural chain unless they say otherwise; changes in a name come on top.
UniProt P51450: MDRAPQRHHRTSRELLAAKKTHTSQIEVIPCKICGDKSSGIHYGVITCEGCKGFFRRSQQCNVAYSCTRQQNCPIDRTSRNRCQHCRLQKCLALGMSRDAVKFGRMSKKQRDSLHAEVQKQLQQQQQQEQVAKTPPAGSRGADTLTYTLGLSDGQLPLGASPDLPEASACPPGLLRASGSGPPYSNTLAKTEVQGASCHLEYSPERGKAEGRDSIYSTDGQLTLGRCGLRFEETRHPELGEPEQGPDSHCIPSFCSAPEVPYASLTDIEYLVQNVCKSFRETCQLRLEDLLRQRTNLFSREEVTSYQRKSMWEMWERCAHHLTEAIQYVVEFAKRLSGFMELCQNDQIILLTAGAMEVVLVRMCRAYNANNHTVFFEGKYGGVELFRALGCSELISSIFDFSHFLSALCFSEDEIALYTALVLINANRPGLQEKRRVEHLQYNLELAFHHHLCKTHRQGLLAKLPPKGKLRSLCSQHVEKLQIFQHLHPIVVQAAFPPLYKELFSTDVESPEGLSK

target: Nuclear receptor ROR-gamma (Mus musculus) (UniProt P51450); experiment: qHTS for inhibitors of ROR gamma transcriptional activity; conditions: Drosophila S2 Gal4-RORgamma UAS-luciferase reporter, 20 h; series mostly up to 53.6 µM; note: nearly all actives have a fitted effect of over 60% in size
Outline: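 Luminescence from a UAS-regulated Photinus luciferase reporter in stably transfected Drosophila Schneider cells is measured; decreased signal marks ROR gamma inhibition. Fusion expression is induced by 700 uM copper sulfate for 20 hr.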
Potency is the fitted concentration of half-maximal effect.

Potency, inconclusive:
COc1ccc(CNc2ncnc3ccccc23)cc1 2.82 µM [activator, partial curve]
Cc1ccc(N2CCN(/N=C/c3cccs3)CC2)cc1 14.1 µM [activator, single point]
NNC(=S)Nc1ccc(S(=O)(=O)N2CCCCC2)cc1 0.0079 µM [inhibitor, full curve, poor fit]
Cn1c(SCC(=O)N(Cc2ccccc2)C(C)(C)C)nc2ccccc21 22.4 µM [inhibitor, single point]
Cc1ccccc1C(=O)NCCN=C1NS(=O)(=O)c2ccccc21 12.6 µM [activator, partial curve]
COc1cc(/C=C2/SC(=S)N(Cc3ccccc3)C2=O)ccc1O 11.2 µM [activator, single point]
COc1ccc(C(c2nnnn2Cc2cccs2)N2CCN(c3ccccc3F)CC2)cc1OC (stereo unspecified) 22.4 µM [inhibitor, single point]
CCOC(=O)C1=C(C)N=C2c3ccccc3C(=O)C2C1c1ccc(C)cc1 (stereo unspecified) 5.01 µM [inhibitor, single point]
COc1cccc(C2CC(c3ccccc3)n3ncnc3N2)c1 (stereo unspecified) 3.98 µM [inhibitor, single point]
COc1ccc(OC)c(/C=C(\NC(=O)c2ccccc2)C(=O)N/N=C/c2ccc(C)s2)c1 25.1 µM [inhibitor, single point]
CCc1cc2cc(C(=O)N3CCN(Cc4ccccc4)CC3)sc2s1 20 µM [activator, single point]
N#C/C(=N\Nc1ccc(Cl)cc1)C(=O)c1ccccc1 31.6 µM [inhibitor, single point]
Cc1ccc(C(=O)N2CCC(Cc3ccccc3)CC2)cc1[N+](=O)[O-] 31.6 µM [activator, single point]
COc1ccc(-c2noc(CCCC(=O)N3CCOCC3)n2)cc1 35.5 µM [inhibitor, single point]
CCOc1ccc(C(=O)C[n+]2cccc3cc(C)ccc32)cc1 14.1 µM [activator, single point]
CC(Nc1ncnc2nc[nH]c12)c1ccccc1 (stereo unspecified) 14.1 µM [activator, single point]
O=C(Cn1[nH]c(=O)c2ccccc2c1=O)Nc1cccc(S(=O)(=O)N2CCCCCC2)c1 15.8 µM [activator, partial curve]
COC(=O)c1c(C(=O)OC)c2cc(C(=O)c3ccccc3)ccn2c1Cl 3.16 µM [activator, single point]
Cc1cc(C)c2c(CC(=O)NCc3ccco3)coc2c1 35.5 µM [activator, single point]
COc1cccc(CN2C(=NC(=O)CCC3CCCC3)SC3CS(=O)(=O)CC32)c1 (stereo unspecified) 11.2 µM [inhibitor, single point]
CCc1ccc(C(CNC(=O)c2ccc3c(=O)n(-c4ccccc4F)c(=S)[nH]c3c2)N(C)C)cc1 (stereo unspecified) 22.4 µM [inhibitor, single point]
COc1ccc(NC(=O)CC2Sc3ncnn3C2=O)cc1 (stereo unspecified) 20 µM [inhibitor, single point]
CCCCC(=Nc1ccccc1OC)C1=C(O)CC(c2ccccc2)CC1=O (stereo unspecified) 10 µM [inhibitor, partial curve]
COc1ccc(CCN2C(=O)C3C4CC(C5C(C(=O)O)=NOC45)C3C2=O)cc1OC (stereo unspecified) 35.5 µM [inhibitor, single point]
Cc1cc(C(=O)NNC(=S)Nc2ccccc2)nn1C 25.1 µM [inhibitor, single point]
Cc1ccc(SCC2CNc3nc4ccccc4c(=O)n32)c(C)c1 (stereo unspecified) 12.6 µM [activator, partial curve]
CCOc1ccc(-n2c(SCC(=O)Nc3ccc(Br)cc3)nc3n[nH]c(C)c3c2=N)cc1 35.5 µM [inhibitor, single point]
CCOC(=O)c1cc(CC)sc1NC(=O)CN1CCN(C(=O)c2ccco2)CC1 35.5 µM [activator, single point]
CC(=O)Oc1ccccc1N(C(C)=O)S(=O)(=O)c1ccc2ccccc2c1 17.8 µM [activator, single point]
CC(C)NCC(O)c1cc(O)cc(O)c1 (stereo unspecified) 5.62 µM [activator, single point]
CN1CCN(C(=O)c2ccc(COc3cc(Cl)ccc3Cl)o2)CC1 35.5 µM [activator, single point]
Cc1ccc2nc(NC(=O)C3CCCN(S(=O)(=O)c4cccc5nsnc45)C3)sc2c1 (stereo unspecified) 8.91 µM [activator, partial curve]
CCS(=O)(=O)N1N=C(c2cccc(NS(C)(=O)=O)c2)CC1c1ccc(C)cc1 (stereo unspecified) 10 µM [activator, partial curve]
COC(=O)[C@@H]1[C@@H]2C[C@H]3c4[nH]c5cc(OC)ccc5c4CCN3C[C@@H]2C[C@H](OC(=O)c2cc(OC)c(OC)c(OC)c2)[C@H]1OC 12.6 µM [activator, single point]
Cc1nc2nc(-c3ccc(F)cc3)cn2nc1C 12.6 µM [inhibitor, partial curve, poor fit]
Cc1ccnc(NS(=O)(=O)c2ccc(NC(=O)C34CC5CC(CC(C5)C3)C4)cc2)n1 28.2 µM [activator, single point]
Nc1ncnc(Oc2cccc(C(F)(F)F)c2)c1[N+](=O)[O-] 17.8 µM [inhibitor, single point]
Cc1ccc(NC(=O)CN(C)C(=O)c2ccc(Cl)c([N+](=O)[O-])c2)cc1 15.8 µM [inhibitor, partial curve, poor fit]

Potency, active:
Cc1cccc(-n2cc(-c3ccc([N+](=O)[O-])cc3)[nH]c2=S)c1 7.08 µM
CC(C)C[C@H](NC(=O)c1nc[nH]c1C(=O)NCc1ccccc1)C(=O)OC(C)(C)C 4.47 µM
COc1cc(C(=O)N/N=C(\c2ccccc2)c2ccccn2)cc(OC)c1OC 1.26 µM
Oc1ccc(/C=N/Nc2cccc3cccnc23)c(O)c1 2.51 µM
CCOC(=O)/C(=C\c1ccccc1)C(=O)c1cc(C(C)=O)c(Nc2ccccc2)s1 7.08 µM
Cc1cccc(OCCNC(=S)NC(=O)c2cncc(Br)c2)c1 5.01 µM
CCCc1cc(NCc2ccccn2)n2nc(C)c(-c3ccccc3)c2n1 0.0891 µM
c1ccc(OCCCCn2cnc3ccccc32)cc1 12.6 µM
Cc1cc2cc(CNC(=S)NC3CCCCC3)ccc2[nH]1 14.1 µM
CCCn1nnc(NC(=S)NC(=O)Cc2ccccc2)n1 0.251 µM
Cc1ccc(NC(=O)C2=C(c3ccccc3)S(=O)(=O)CCS2(=O)=O)cc1 0.631 µM
CN(C)c1ccc(CNc2nc3ccccc3s2)cc1 5.01 µM
C=CCNC(=S)Nc1sc2c(c1C(=O)OCC)CCN(C(=O)OCC)C2 2.51 µM
COc1ccccc1/C=C/C=N/n1c(-c2ccco2)n[nH]c1=S 0.631 µM
O=C1CS/C(=N/N=C/c2cccs2)N1 0.562 µM
COc1ccc(-c2nnc(Nc3nc4c(OC)cccc4s3)o2)c(OC)c1 1.58 µM
CCOCCCN1CN(Cc2ccco2)CNC1=S 11.2 µM

Potency, inactive:
COc1cc(C2=NOC(C(=O)NCc3cccnc3)C2)cc(OC)c1OC (stereo unspecified)
CCCN1C(=O)SC(CC(=O)Nc2ccc(C)cc2)C1=O (stereo unspecified)
COc1ccc(-n2nnnc2SCC(=O)Nc2ccccc2)cc1
COc1cc(C)ccc1OCc1cc(C(=O)N2CCN(C3CCCCC3)CC2)no1
Cc1ccc(C(=O)Nc2ccccc2N2CCCCC2)cc1
COc1ccc(C(C)=O)cc1COc1ccccc1[N+](=O)[O-]
Cc1onc(-c2ccccc2)c1C(=O)N1CCN(c2ncccc2C(F)(F)F)CC1
Cn1c(CNC(=O)c2ccco2)nnc1SCC(=O)c1ccc(F)cc1
Cc1cc(C)n(-c2nnc(C)n2/N=C/c2ccccc2OCc2ccccc2Cl)n1
COc1ccc(Cl)cc1NC(=O)c1cc(-c2ccccc2)on1
O=C(Cn1nnc(-c2ccccc2Cl)n1)NCc1ccc2c(c1)OCO2
O=C(CCC(=O)N1CCOc2ccccc21)NC1CCN(Cc2ccccc2)CC1
CCC(C)C(NC(=O)C1CCC(C)CC1)C(=O)NCCCN1CCCCC1CC (stereo unspecified)
COc1ccc(C2CC(=O)c3cnc(NC(=O)c4ccco4)nc3C2)cc1 (stereo unspecified)
CCCCCn1c(SCCCC)nc2c1c(=O)[nH]c(=O)n2C
Cc1cc(NC(=O)CSc2nc3c(cc2C#N)CCCC3)no1
N#Cc1ccccc1NC(=O)Nc1ccc(Cl)cc1
CC(=O)Nn1c(COc2ccccc2C)nc2ccccc2c1=O
CCN(C(=O)c1cc2c(s1)-c1ccccc1OC2)c1cc(OC)ccc1OC
O=C(OCc1cncs1)c1ccccc1
COc1ccc(Cn2c3ccc(OC)cc3c3nc4ccccc4nc32)cc1

Fetched by compound from the list above:
Potency, inactive:
COc1ccc(-n2nnnc2SCC(=O)Nc2ccccc2)cc1
Cc1cc(C)n(-c2nnc(C)n2/N=C/c2ccccc2OCc2ccccc2Cl)n1
COc1ccc(C2CC(=O)c3cnc(NC(=O)c4ccco4)nc3C2)cc1 (stereo unspecified)
O=C(CCC(=O)N1CCOc2ccccc21)NC1CCN(Cc2ccccc2)CC1
COc1cc(C2=NOC(C(=O)NCc3cccnc3)C2)cc(OC)c1OC (stereo unspecified)
